Assay results taken from article PMC10792529 (Proteins, 2023).
No constants are given. Whether binding was seen depends on the method and setting. Some binding calls cover weakened binding; strength is not graded here.

T1: human SUN1 SUN domain (human, UniProt O94901 589-785)
T1 sequence: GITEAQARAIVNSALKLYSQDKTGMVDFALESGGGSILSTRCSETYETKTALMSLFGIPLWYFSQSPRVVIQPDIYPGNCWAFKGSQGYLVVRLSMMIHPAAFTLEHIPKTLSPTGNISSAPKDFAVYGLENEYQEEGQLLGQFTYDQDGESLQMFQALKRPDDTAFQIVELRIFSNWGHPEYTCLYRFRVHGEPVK


Assays:
human SUN1 SUN domain = target: T1, human SUN1 SUN domain; experiment: crystal structure; SUN1-KASH6 complex, nine SUN domains and six KASH peptides; both purified
[1] = target: TurandotA protein from Drosophila melanogaster (Drosophila melanogaster) (UniProt Q8IN44); experiment: SEC + other: NMR relaxation; recombinant TotA in solution; data not shown; both purified

| Binder | binding (human SUN1 SUN domain) | binding [1] |
| --- | --- | --- |
| TGQLFQKSVDAAPTQQEDSWTSLEHILWPFTRLRHNGPPPV [KASH6 peptide, the KASH domain of JAW1/LRMP] | binds |  |
| TurandotA protein from Drosophila melanogaster (protein, UniProt Q8IN44 22-129) YSDEDREADNLRIAEIIKNAQDDDSKINSTQELLDIYRRLYPSLTPEERESIDKFVNEHTDAIIIDGVPIQGGRKARIVGKIVSPGVKGLATGFFEELGSKLAQLFTG |  | no binding |
